These results are taken from article doi:10.1101/2022.10.17.512524.

The chains behind the UniProt entries cited, without tags or fusion partners.
UniProt P50851: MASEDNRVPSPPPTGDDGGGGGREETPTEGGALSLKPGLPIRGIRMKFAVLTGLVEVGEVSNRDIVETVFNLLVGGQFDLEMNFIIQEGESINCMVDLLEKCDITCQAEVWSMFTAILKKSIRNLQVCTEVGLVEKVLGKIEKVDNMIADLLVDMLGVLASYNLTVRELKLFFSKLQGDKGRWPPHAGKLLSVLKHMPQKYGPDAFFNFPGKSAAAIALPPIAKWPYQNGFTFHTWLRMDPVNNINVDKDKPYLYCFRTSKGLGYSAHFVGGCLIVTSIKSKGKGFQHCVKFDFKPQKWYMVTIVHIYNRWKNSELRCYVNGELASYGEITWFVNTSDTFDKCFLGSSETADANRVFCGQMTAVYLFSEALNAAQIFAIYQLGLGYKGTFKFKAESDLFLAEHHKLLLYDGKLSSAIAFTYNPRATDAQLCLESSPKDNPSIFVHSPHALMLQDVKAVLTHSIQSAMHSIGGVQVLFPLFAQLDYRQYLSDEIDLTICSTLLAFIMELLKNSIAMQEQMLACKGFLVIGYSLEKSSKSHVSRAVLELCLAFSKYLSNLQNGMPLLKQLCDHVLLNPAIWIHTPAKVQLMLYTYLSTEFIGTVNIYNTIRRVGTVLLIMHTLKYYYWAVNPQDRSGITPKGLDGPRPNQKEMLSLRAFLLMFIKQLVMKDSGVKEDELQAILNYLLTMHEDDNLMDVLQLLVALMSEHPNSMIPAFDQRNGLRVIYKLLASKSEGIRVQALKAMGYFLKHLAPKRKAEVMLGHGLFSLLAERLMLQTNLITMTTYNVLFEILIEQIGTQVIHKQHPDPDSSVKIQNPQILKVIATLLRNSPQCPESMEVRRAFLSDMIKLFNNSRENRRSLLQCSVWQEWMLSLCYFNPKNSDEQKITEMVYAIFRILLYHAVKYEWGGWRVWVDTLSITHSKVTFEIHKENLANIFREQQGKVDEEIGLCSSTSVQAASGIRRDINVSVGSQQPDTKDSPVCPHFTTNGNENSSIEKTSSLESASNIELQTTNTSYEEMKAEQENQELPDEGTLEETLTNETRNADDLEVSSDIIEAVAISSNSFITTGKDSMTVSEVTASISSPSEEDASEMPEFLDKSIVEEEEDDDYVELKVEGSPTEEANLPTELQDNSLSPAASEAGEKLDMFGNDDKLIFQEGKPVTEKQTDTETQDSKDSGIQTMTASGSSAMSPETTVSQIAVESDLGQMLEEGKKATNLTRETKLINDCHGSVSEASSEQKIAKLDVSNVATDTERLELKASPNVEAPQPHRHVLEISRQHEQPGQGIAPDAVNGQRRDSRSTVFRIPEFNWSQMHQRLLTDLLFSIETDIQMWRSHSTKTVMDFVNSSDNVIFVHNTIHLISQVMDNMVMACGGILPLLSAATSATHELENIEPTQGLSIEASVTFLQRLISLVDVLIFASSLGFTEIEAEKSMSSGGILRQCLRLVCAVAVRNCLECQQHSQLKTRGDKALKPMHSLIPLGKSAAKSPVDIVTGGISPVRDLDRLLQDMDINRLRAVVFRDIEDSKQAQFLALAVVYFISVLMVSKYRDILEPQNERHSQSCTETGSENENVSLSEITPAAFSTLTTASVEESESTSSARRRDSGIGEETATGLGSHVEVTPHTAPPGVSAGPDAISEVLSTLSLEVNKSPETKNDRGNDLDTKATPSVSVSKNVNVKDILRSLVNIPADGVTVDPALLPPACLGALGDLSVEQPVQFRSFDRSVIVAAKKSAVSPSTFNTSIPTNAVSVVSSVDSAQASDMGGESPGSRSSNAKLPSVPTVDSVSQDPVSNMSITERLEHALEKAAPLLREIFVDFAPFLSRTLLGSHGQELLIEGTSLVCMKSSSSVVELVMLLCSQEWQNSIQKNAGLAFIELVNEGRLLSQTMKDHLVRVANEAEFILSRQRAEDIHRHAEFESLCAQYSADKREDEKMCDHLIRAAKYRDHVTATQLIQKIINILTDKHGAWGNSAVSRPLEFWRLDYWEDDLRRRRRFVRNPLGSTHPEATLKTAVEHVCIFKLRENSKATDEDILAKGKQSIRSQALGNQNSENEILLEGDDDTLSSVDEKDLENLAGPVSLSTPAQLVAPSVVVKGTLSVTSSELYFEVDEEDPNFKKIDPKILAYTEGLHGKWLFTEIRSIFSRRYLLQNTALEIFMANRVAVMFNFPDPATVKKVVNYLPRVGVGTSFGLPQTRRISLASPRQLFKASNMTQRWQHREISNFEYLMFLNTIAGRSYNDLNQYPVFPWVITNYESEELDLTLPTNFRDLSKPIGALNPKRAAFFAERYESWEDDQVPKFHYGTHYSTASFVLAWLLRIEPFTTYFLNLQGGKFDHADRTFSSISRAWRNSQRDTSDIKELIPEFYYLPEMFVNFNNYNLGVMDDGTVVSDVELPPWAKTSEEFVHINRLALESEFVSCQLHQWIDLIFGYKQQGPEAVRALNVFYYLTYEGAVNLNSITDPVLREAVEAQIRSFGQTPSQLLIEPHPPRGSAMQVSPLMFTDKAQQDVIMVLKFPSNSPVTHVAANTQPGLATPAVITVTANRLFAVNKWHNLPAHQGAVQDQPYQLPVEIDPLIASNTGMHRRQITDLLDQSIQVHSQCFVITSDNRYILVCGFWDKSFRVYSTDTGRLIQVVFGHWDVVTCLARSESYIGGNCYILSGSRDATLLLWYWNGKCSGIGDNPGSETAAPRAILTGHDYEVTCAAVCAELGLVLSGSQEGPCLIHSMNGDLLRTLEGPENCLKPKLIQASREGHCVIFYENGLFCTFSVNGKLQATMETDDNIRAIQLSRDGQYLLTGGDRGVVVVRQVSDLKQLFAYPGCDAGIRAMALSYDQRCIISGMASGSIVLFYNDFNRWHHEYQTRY
UniProt Q99570: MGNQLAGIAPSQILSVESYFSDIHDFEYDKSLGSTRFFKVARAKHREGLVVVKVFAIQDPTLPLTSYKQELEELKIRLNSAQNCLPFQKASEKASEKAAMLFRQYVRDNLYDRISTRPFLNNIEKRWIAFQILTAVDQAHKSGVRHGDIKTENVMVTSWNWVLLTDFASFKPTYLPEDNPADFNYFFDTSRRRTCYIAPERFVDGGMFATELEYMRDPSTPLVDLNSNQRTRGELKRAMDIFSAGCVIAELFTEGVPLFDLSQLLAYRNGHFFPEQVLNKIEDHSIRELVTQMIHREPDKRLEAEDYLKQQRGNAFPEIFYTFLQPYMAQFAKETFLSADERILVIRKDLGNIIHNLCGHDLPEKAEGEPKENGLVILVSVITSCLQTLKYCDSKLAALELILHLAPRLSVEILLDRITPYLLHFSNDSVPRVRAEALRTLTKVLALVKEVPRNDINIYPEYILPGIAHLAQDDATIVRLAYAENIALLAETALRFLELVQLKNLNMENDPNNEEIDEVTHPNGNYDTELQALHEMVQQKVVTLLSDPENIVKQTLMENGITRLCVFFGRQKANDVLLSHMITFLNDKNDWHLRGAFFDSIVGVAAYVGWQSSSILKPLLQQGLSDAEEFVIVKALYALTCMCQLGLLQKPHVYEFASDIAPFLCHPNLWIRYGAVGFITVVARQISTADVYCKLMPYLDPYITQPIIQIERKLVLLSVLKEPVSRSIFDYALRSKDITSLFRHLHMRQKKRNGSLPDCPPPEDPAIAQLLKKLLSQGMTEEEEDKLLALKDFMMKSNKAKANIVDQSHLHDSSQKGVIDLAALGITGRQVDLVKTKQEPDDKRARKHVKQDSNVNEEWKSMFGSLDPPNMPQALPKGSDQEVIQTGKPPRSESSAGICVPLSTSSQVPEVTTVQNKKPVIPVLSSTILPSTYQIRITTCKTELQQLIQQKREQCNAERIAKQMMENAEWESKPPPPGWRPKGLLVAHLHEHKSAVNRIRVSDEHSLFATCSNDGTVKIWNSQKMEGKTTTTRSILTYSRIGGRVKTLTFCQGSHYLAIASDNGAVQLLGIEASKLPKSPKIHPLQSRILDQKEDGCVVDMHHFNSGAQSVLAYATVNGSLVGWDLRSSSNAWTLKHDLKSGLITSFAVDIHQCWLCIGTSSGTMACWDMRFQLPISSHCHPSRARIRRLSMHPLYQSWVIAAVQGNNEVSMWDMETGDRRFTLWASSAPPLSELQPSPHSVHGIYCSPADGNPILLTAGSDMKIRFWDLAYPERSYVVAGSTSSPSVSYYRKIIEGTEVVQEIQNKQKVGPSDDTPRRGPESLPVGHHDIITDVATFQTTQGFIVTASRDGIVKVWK
UniProt Q6ZNE5: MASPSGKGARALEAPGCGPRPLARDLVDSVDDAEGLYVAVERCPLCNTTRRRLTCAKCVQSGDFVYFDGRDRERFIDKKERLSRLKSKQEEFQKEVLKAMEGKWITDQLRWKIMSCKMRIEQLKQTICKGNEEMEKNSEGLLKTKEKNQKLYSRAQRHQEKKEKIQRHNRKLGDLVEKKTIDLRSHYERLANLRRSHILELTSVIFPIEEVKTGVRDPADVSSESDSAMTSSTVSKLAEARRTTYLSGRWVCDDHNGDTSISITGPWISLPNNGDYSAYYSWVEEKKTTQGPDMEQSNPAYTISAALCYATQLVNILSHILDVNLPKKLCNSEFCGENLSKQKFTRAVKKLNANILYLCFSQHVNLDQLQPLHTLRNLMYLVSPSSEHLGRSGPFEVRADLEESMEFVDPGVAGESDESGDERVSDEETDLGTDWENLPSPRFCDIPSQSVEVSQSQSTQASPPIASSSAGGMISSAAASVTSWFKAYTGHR
UniProt Q14457: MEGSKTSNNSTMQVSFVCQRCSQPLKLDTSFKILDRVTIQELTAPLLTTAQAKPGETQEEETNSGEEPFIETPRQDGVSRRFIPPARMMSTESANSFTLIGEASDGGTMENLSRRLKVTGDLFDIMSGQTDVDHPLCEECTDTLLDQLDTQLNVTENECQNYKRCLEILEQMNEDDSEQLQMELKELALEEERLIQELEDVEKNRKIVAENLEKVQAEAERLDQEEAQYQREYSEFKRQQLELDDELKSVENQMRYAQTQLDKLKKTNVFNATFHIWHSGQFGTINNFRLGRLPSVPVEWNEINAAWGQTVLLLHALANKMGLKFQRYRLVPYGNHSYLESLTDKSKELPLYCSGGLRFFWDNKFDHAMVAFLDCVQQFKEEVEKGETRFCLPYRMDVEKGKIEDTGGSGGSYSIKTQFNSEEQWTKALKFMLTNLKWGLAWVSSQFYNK

These are yes or no findings as the source states them, for the method shown. In cells and extracts the contact can be indirect. Some results given as binding are weak or reduced against the parent protein; the word gives no strength. For part of these data: Sequences can lack the tags named with a protein.

The target of experiment [1] is Human LRBA full length tagged to Myc-DDK (human) (UniProt P50851). Nature of the experiment: co-IP.
In experiment [2] the target is lipopolysaccharide-responsive beige-like anchor protein (LRBA), endogenous (human (endogenous in HEK293T and LCL)) (UniProt P50851). Nature of the experiment: proximity ligation.
The target is the same in experiment [3]. The experiment is described as follows: co-IP.
For experiment [4], the target named is Human LRBA full length tagged to Myc-DDK (human) (UniProt P50851). The experiment is described as follows: co-IP + proximity ligation.
Experiment [5] deals with lipopolysaccharide-responsive beige-like anchor protein (LRBA), endogenous (human (endogenous in HEK293T and LCL)) (UniProt P50851). The experiment is described as follows: co-IP + proximity ligation.
For experiment [6], the target named is Human LRBA full length tagged to Myc-DDK (human) (UniProt P50851). Nature of the experiment: co-IP. The source holds these as a separate data set.

In the case of “his-tagged PIK3R4 (from UniProt Q99570 1-1358)”, the binding entry in experiment [1] is recorded as “binds”.

Consider “phosphoinositide 3-kinase regulatory subunit 4 (PIK3R4), endogenous (from UniProt Q99570 1-1358)”, for which the binding entry in experiment [2] and in experiment [3] was “binds” in each case.

On to “AuTophaGy Related protein 14L (ATG14L) (from UniProt Q6ZNE5 1-492)”, for which the binding entry in experiment [4] is “no binding”.

As to Beclin-1 (from UniProt Q14457 1-450), in experiment [5], the binding entry is on record as “no binding”.

B1: GFP-tagged FYVE And Coiled-Coil Domain Autophagy Adaptor 1 (FYCO1) (protein, UniProt Q9BQS8 1-1478)
chain: MASTNAESQLQRIIRDLQDAVTELSKEFQEAGEPITDDSTSLHKFSYKLEYLLQFDQKEKATLLGNKKDYWDYFCACLAKVKGANDGIRFVKSISELRTSLGKGRAFIRYSLVHQRLADTLQQCFMNTKVTSDWYYARSPFLQPKLSSDIVGQLYELTEVQFDLASRGFDLDAAWPTFARRTLTTGSSAYLWKPPSRSSSMSSLVSSYLQTQEMVSNFDLNSPLNNEALEGFDEMRLELDQLEVREKQLRERMQQLDRENQELRAAVSQQGEQLQTERERGRTAAEDNVRLTCLVAELQKQWEVTQATQNTVKELQTCLQGLELGAAEKEEDYHTALRRLESMLQPLAQELEATRDSLDKKNQHLASFPGWLAMAQQKADTASDTKGRQEPIPSDAAQEMQELGEKLQALERERTKVEEVNRQQSAQLEQLVKELQLKEDARASLERLVKEMAPLQEELSGKGQEADQLWRRLQELLAHTSSWEEELAELRREKKQQQEEKELLEQEVRSLTRQLQFLETQLAQVSQHVSDLEEQKKQLIQDKDHLSQQVGMLERLAGPPGPELPVAGEKNEALVPVNSSLQEAWGKPEEEQRGLQEAQLDDTKVQEGSQEEELRQANRELEKELQNVVGRNQLLEGKLQALQADYQALQQRESAIQGSLASLEAEQASIRHLGDQMEASLLAVRKAKEAMKAQMAEKEAILQSKEGECQQLREEVEQCQQLAEARHRELRALESQCQQQTQLIEVLTAEKGQQGVGPPTDNEARELAAQLALSQAQLEVHQGEVQRLQAQVVDLQAKMRAALDDQDKVQSQLSMAEAVLREHKTLVQQLKEQNEALNRAHVQELLQCSEREGALQEERADEAQQREEELRALQEELSQAKCSSEEAQLEHAELQEQLHRANTDTAELGIQVCALTVEKERVEEALACAVQELQDAKEAASREREGLERQVAGLQQEKESLQEKLKAAKAAAGSLPGLQAQLAQAEQRAQSLQEAAHQELNTLKFQLSAEIMDYQSRLKNAGEECKSLRGQLEEQGRQLQAAEEAVEKLKATQADMGEKLSCTSNHLAECQAAMLRKDKEGAALREDLERTQKELEKATTKIQEYYNKLCQEVTNRERNDQKMLADLDDLNRTKKYLEERLIELLRDKDALWQKSDALEFQQKLSAEERWLGDTEANHCLDCKREFSWMVRRHHCRICGRIFCYYCCNNYVLSKHGGKKERCCRACFQKLSEGPGSPDSSGSGTSQGEPSPALSPASPGPQATGGQGANTDYRPPDDAVFDIITDEELCQIQESGSSLPETPTETDSLDPNAAEQDTTSTSLTPEDTEDMPVGQDSEICLLKSGELMIKVPLTVDEIASFGEGSRELFVRSSTYSLIPITVAEAGLTISWVFSSDPKSISFSVVFQEAEDTPLDQCKVLIPTTRCNSHKENIQGQLKVRTPGIYMLIFDNTFSRFVSKKVFYHLTVDRPVIYDGSDFL
For the molecule B1, in experiment [6], the binding entry is reported as “binds”.
